The record followed here is the supplement of paper PMC4604168 (melanoma cell lines).

The other results are listed elsewhere or left out. Many values rest on one well or one pass, so single values are uncertain.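 Imaging used 1,536-well plates; nuclei positive for cleaved PARP by antibody were divided by total DNA-stained nuclei to yield the apoptosis fraction. Doses for screening kept most cells viable, and cell lines differ markedly in resting and induced cleaved-PARP levels.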

The experiment relates to MEL-HO. In words: cleaved PARP positive nuclei fraction relative to DMSO control; melanoma cells; higher = more apoptosis. As to conditions: library dose: low library concentration; 72 h.
Regarding `Cn1sc(=O)n(Cc2ccccc2)c1=O` + CNC(=O)c1cc(Oc2ccc(NC(=O)Nc3ccc(Cl)c(C(F)(F)F)c3)cc2)ccn1 [sorafenib] (first compound 0.4 µM, partner dose 0.4 µM), the “cleaved PARP positive nuclei fraction” value was determined as 78.9%.

In the case of `CN(c1ncccc1CNc1nc(Nc2ccc3c(c2)CC(=O)N3)ncc1C(F)(F)F)S(C)(=O)=O` + CS(=O)(=O)CCNCc1ccc(-c2ccc3ncnc(Nc4ccc(OCc5cccc(F)c5)c(Cl)c4)c3c2)o1 [lapatinib] (first compound 0.08 µM, partner dose 0.8 µM), the “cleaved PARP positive nuclei fraction” value was determined as 123%.

Take `CCCCCCCCc1ccc(CCC(N)(CO)CO)cc1` [fingolimod] + CC(=O)O[C@@]12CO[C@@H]1C[C@H](O)[C@@]1(C)C(=O)[C@H](O)C3=C(C)[C@@H](OC(=O)[C@H](O)[C@@H](NC(=O)OC(C)(C)C)c4ccccc4)C[C@@](O)([C@@H](OC(=O)c4ccccc4)[C@H]21)C3(C)C [Docetaxel] (first compound 2 µM, partner dose 0.0001 µM): the “cleaved PARP positive nuclei fraction” value was 131%.

With `CCCCCCCCc1ccc(CCC(N)(CO)CO)cc1` [fingolimod] + COCC[n+]1c2c(n(Cc3cnccn3)c1C)C(=O)c1ccccc1C2=O [YM155] (first compound 2 µM, partner dose 0.0004 µM), the “cleaved PARP positive nuclei fraction” value came to 190%.

Consider `NC1(c2ccc(-c3nc4ccn5c(=O)[nH]nc5c4cc3-c3ccccc3)cc2)CCC1` + C[C@@H](Oc1cc(-c2cnn(C3CCNCC3)c2)cnc1N)c1c(Cl)ccc(F)c1Cl [Crizotinib] (first compound 0.4 µM, partner dose 0.2 µM), for which the “cleaved PARP positive nuclei fraction” value turned out to be 53.1%.

On to `C[C@]1(O)C[C@@H](c2nc(-c3ccc4ccc(-c5ccccc5)nc4c3)c3c(N)nccn32)C1` + Cc1cc(Nc2cc(N3CCN(C)CC3)nc(/C=C/c3ccccc3)n2)n[nH]1 [ENMD2076] (first compound 0.4 µM, partner dose 0.04 µM), for which the “cleaved PARP positive nuclei fraction” value worked out at 59.6%.

On to `Cn1sc(=O)n(Cc2ccccc2)c1=O` + C[C@@H](Oc1cc(-c2cnn(C3CCNCC3)c2)cnc1N)c1c(Cl)ccc(F)c1Cl [Crizotinib] (first compound 0.4 µM, partner dose 0.2 µM), for which the “cleaved PARP positive nuclei fraction” value amounted to 157%.

In the case of `NC(=O)c1ccc(N(C(N)=O)c2c(F)cccc2F)nc1-c1ccc(F)cc1F` + CCCCCCCCc1ccc(CCC(N)(CO)CO)cc1 [fingolimod] (first compound 0.4 µM, partner dose 2 µM), the “cleaved PARP positive nuclei fraction” value turned out to be 128%.

With `NC1(c2ccc(-c3nc4ccn5c(=O)[nH]nc5c4cc3-c3ccccc3)cc2)CCC1` + CO[C@H]1C[C@@H]2CC[C@@H](C)[C@@](O)(O2)C(=O)C(=O)N2CCCC[C@H]2C(=O)O[C@H]([C@H](C)C[C@@H]2CC[C@@H](OCCO)[C@H](OC)C2)CC(=O)[C@H](C)/C=C(\C)[C@@H](O)[C@@H](OC)C(=O)[C@H](C)C[C@H](C)/C=C/C=C/C=C/1C [everolimus] (first compound 0.4 µM, partner dose 0.02 µM), the “cleaved PARP positive nuclei fraction” value was found to be 50.1%.
